In article PMC10163288:
This is one part of the list.

B1: il2ra_site1_3nfp_sap_8_mot_HHH_b1_04964_af2_000000227_0001_40_57_H_._81d5ae1f4baf8c7fe012e9a1203c0b55_0001_0001_0000600026_0000001_0_0001 (protein)
chain: SSSSNAAERWTEEAERLAKELGDEELVEELRELLEEAVKKGDMEVARELIKVIAKVQLKARSSSS
B2: il2ra_site1_1z92_sap_25_mot_9bc32e39fd96e64286323717145257bc_0001_000000091_0001_37_51_H_._25e4e8523bb898988f824d7176892a6f_0001_0001_0000300034_0000001_0_0001 (protein)
chain: SVEEIEEEAKERNDPLLFEAAHDLAVALKLGIPPENVEKALRRIAKRRNDPELEEAVELAIRLVR
B3: il2ra_site1_2b5i_sap_12_mot_HHH_b2_08159_000000245_0001_1_21_H_._HHH_b2_07085_af2_0001_0000200012_0000001_0_0001_af2pred_dldesign_0_af2pred (protein)
chain: SSSSSSPKLKEIERLIEEAKKEKNLRKALELLEKAYKLAGEIDDDELLDEIEKLAKELLSSSSSS
B4: il2ra_site2_2erj_sap_16_mot_HHH_b1_01799_af2_000000125_0001_1_17_H_._HHH_b2_07914_0001_0000100001_0000001_0_0001_af2pred_0001_1_af2pred_swapped (protein)
chain: SSSSDEEIEEIIERLVKEYNLSEEDKKYLQASARLAEEAGANDELIRRLLERQARWAREGSSSSS
B5: il2ra_site2_3nfp_normal_mot_HHH_b2_03816_000000163_0001_40_54_H_._d2b7c2924102c02e5b5e195002b33380_0001_1_0001_0000400033_0000001_0 (protein)
chain: SEEEIRQAIELARELGDPALELLLHSLLYQAKKDPEIEKEAEEVAELVLSGDPDKAFELAARLHH
B6: il2ra_site2_3nfp_sap_27_mot_HHH_b1_04032_000000208_0001_43_56_H_._69a32af0339682088b0ab7bc0c544914_0001_1_0001_0000200006_0000001_0_0001_af2pred_0001_1_af2pred_ … (protein)
chain: SSSSSSEEFEEILKKALRLARELGDPEAFLRILELAERYLKEGDPRIEEELRKLLEELERSSSSS
B7: il2ra_site2_3nfp_sap_29_mot_HHH_b1_00202_af2_000000102_0001_1_19_H_._HHH_b1_03184_0001_0000300017_0000001_0_0001 (protein)
chain: SSSSDKAEEYIRIALELAKEAIEAGDEESARRLLHVAIAAARDRNDEEILEELERLLEELSSSSS
B8: il2ra_site2_3nfp_normal_mot_HHH_b2_07083_af2_000000083_0001_42_56_H_._HHH_b1_04834_0001_0000100003_0000001_1_af2pred_0001_af2pred_1 (protein)
chain: SSSSDIEERVRELLRQLEEALEEGDEELFEKLAIEVSQLAYEANDPELFAKVAELKIKFGSSSSS
B9: il2ra_site2_2erj_sap_20_mot_HHH_b2_02430_000000062_0001_23_40_H_._HHH_eva_0415_0001_0000900158_0000001_0_0001 (protein)
chain: SSSSDEELHELFRLAVEVLALLANGNPEEAKKVTEELEELIKEQNSEAAEKLLESLEKSFRSSSS
B10: il2ra_site1_2b5i_sap_13_mot_HHH_b2_07160_000000135_0001_1_14_H_._HHH_b1_04051_0001_0000500030_0000001_1_0001_af2pred_dldesign_0_af2pred (protein)
chain: SSSSSLGRRRRELLERADKAFKAEDYELLKELLKEVKELVEKTKRKSDKAILKLIEEALEESSSS
B11: il2ra_site2_2erj_sap_25_mot_28c41ff5ff93e4e540bfc34eab8aed47_0001_af2_000000076_0001_1_17_H_._HHH_b1_01063_0001_0000200007_0000001_0_0001_af2pred_0001_1_af2pred … (protein)
chain: SSSSSSEIEEFVEELVEKFNLSEEQEKQLRLSAKLAKEAGYSDEFVRKWLEIIARLAHESSSSSS
B12: il2ra_site1_1z92_sap_16_mot_HHH_b2_05238_af2_000000252_0001_38_55_H_._HHH_b1_06981_af2_0001_0000200017_0000001_0_0001_af2pred_0001_af2pred_swapped (protein)
chain: SSSSSDEEEREAEKVVRKVVEKFGLDEEEEELLERLAEKLLKLGTSPEAIRHALEKLLELSSSSS
B13: il2ra_site1_2b5i_normal_mot_HHH_b1_07881_af2_000000049_0001_1_19_H_._HHH_b1_05336_af2_0001_0000400019_0000001_0_af2pred_dldesign_0_af2pred (protein)
chain: SSSSSLEDEVYRLYNKALELYKAGKREEAKEVLEKALELAKKAGDSVAVAELEYLLERLKSSSSS
B14: il2ra_site2_2erj_sap_26_mot_HHH_b2_07015_000000077_0001_40_57_H_._HHH_b1_02157_0002_0000200034_0000001_0_0001_af2pred_0001_af2pred (protein)
chain: SSSSSDEQEEAERAADRVIELFEEGNPEEAERLLEELEKELEEAGNEHLLKFVRQVLSYLSSSSS
B15: il2ra_site1_2b5i_sap_21_mot_HHH_b2_08159_000000245_0001_1_21_H_._8ad9ac091cb40d3f9ee7ab2e9a3a3379_0001_0001_0000400039_0000001_0_0001_af2pred_0001_af2pred_1 (protein)
chain: SSSSSELLEEAFELLEEADELAKKGNDEEAEKVLREAEELLEKAGNPSLLRLVRAALRLTSSSSS
B16: il2ra_site1_3nfp_sap_17_mot_HHH_b1_05128_000000175_0001_22_38_H_._HHH_b2_04730_af2_0001_0000200009_0000001_0_0001 (protein)
chain: DKVAKLLIEEAIKQNNELILKRFLEQAERLLGNPEEAKEFLRRAIEELLGDPEEAKEIVREIEER
B17: il2ra_site1_2b5i_sap_16_mot_e4f16f412d24973e63efe4e4a8bb3ce7_0001_1_af2_000000119_0001_1_13_H_._HHH_b1_05763_af2_0001_0000100008_0000001_0_0001 (protein)
chain: SSSSDEEDEEVDRLFHEASRAWREGNPEEAEELLERALELARKIGDPSAAEDIRRFLELVRSSSS
B18: il2ra_site1_1z92_sap_13_mot_7b521abccb2855357a08c3dc921ef1fd_0001_000000147_0001_1_13_H_._HEEHE_3016_0001_0000100013_0000001_0_0001_af2pred_0001_af2pred_1 (protein)
chain: DEAEELAEEARELAERGDPEEALEVLKELLKLLGDPALKFLIEVLERKLKHDEEAAAKLIKKMVR
B19: il2ra_site2_2erj_sap_27_mot_HHH_b1_07741_000000192_0001_1_20_H_._HHH_b1_02897_0001_0000500025_0000001_0_0001 (protein)
chain: SSSSNEDLRELYELMVKILELIQRGDPEEAEKLLERAEELAERLQSESVKEMLEWLRREVNSSSS

The binders below were run against il2ra, P01589 (assay: yeast display titration).

Apparent Kd, inactive:
B1 no binding seen
B2 no binding seen
B3 no binding seen
B4 no binding seen
B5 no binding seen
B6 no binding seen
B7 no binding seen
B8 no binding seen
B9 no binding seen
B10 > 487 nM
B11 no binding seen
B12 no binding seen
B13 no binding seen
B14 no binding seen
B15 no binding seen
B16 no binding seen
B17 no binding seen
B18 no binding seen
B19 no binding seen

Fetched one by one from the entries so far:
Apparent Kd, inactive:
B15 no binding seen
B3 no binding seen
